Drawing on the supplement of paper PMC6411743, this text covers NP40-soluble protein abundance for 5 targets.

Protein sequences, listed by entry. Tags and fused reporters are not part of them. Lines headed by an entry give the natural chain unless they say otherwise; changes in a name come on top.
UniProt Q9UJX3, whole entry: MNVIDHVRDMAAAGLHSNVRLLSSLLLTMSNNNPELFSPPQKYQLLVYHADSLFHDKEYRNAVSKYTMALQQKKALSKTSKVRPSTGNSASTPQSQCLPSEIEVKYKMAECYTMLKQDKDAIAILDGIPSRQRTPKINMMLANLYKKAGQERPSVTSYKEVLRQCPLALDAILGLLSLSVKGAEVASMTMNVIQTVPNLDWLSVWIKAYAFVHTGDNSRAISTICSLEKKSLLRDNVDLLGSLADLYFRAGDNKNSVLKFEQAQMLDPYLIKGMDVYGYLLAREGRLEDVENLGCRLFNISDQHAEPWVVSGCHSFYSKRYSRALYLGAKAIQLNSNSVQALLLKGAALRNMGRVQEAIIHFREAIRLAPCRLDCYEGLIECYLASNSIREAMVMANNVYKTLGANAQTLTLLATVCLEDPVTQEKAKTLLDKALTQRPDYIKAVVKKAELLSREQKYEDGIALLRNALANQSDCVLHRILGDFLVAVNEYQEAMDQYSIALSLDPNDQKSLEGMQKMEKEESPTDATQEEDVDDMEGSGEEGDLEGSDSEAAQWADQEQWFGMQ
UniProt Q9NWK9: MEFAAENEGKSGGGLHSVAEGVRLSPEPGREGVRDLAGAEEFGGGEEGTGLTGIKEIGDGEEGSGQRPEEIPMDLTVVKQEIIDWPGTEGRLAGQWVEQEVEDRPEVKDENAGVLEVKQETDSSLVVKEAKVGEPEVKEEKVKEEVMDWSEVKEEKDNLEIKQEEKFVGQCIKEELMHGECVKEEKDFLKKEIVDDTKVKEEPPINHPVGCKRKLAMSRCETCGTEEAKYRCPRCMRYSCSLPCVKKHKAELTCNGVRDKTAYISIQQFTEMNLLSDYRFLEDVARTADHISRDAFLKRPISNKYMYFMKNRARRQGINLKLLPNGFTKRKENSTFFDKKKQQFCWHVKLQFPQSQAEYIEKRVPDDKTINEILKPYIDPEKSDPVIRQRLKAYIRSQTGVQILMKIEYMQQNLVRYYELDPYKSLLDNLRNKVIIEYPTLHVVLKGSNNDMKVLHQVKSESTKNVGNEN
UniProt Q9NXE8: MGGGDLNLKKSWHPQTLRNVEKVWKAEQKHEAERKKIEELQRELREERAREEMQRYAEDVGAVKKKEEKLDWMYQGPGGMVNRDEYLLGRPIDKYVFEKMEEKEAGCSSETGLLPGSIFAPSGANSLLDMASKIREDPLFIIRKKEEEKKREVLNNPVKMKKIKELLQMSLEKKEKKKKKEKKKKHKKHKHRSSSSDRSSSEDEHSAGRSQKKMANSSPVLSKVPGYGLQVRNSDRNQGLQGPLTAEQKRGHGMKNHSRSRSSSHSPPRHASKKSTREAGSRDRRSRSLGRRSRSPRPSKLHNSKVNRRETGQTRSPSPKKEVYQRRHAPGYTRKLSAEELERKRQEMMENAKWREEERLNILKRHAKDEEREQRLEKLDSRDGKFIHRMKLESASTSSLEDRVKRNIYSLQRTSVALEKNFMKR
UniProt Q9ULI0: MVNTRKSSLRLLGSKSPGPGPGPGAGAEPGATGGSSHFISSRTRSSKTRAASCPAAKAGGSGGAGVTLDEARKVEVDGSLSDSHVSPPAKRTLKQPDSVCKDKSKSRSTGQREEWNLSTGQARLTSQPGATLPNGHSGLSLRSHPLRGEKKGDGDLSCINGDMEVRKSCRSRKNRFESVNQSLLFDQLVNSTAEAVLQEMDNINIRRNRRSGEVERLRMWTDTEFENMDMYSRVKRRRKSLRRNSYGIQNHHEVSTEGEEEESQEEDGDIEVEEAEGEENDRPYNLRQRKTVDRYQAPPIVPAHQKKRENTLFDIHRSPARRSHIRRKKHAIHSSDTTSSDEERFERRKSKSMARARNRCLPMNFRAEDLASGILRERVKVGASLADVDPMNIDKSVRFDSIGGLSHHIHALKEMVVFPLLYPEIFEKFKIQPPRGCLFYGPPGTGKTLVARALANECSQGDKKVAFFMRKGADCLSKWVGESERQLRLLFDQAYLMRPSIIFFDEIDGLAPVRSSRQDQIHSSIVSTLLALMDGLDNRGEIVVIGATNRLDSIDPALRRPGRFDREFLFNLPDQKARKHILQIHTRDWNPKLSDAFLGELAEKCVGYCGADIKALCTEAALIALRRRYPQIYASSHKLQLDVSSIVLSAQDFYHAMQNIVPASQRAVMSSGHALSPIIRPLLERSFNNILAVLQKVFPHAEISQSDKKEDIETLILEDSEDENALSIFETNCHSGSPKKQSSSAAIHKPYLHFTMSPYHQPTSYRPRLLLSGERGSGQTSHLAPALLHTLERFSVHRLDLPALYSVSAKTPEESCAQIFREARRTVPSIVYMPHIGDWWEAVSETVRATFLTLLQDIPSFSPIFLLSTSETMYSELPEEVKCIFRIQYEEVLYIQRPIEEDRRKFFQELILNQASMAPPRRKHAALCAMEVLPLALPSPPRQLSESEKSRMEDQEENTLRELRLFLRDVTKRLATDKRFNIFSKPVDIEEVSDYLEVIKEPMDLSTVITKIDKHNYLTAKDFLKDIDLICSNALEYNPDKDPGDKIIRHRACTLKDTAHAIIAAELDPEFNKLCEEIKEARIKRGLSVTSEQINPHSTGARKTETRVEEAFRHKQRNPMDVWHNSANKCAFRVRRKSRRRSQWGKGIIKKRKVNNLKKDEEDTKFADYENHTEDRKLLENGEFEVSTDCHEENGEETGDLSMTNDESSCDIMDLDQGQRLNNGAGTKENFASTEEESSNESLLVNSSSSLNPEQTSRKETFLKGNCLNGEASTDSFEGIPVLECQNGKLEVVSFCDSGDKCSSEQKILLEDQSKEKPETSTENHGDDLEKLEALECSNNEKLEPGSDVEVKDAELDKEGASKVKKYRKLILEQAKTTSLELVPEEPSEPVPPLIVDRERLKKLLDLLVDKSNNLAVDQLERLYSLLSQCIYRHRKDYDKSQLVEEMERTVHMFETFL
UniProt Q9P0P0: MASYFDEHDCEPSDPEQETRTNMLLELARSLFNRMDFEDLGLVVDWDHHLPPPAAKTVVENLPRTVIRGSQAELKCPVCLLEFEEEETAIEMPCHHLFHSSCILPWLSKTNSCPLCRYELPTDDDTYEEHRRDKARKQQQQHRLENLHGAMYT

Compound in the assay: Nc1nc2c(ncn2[C@@H]2O[C@H](COP(=O)(O)OP(=O)(O)OP(=O)(O)O)[C@@H](O)[C@H]2O)c(=O)[nH]1 [guanosine triphosphate]
Nature of the assay: NP40-soluble protein abundance relative to vehicle (solubility fold change) (ratio); higher = more soluble protein in presence of GTP. As for the experimental part: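 Solubility proteome profiling in Jurkat crude lysate. Lysate was treated with Mg-GTP (0.1-10 mM) for 10 min at room temperature and 3 min at 37 °C, then solubilised with 0.8% NP40 and benzonase, followed by ultracentrifugation. Proteins were quantified by TMT10 LC-MS/MS; the value is the NP40-soluble abundance relative to the NP40-processed vehicle, from 3 independent experiments.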

± gives the standard deviation of the averaged measurements. The list shows a part of the results.

Consider ANAPC7 (UniProt Q9UJX3), for which the NP40-soluble protein abundance is 1.01 ± 0.083 (concentration: 0.1mM); 1.02 ± 0.045 (concentration: 0.5mM); 1.08 ± 0.06 (concentration: 1mM); 1.07 ± 0.12 (concentration: 2mM); 1.11 ± 0.12 (concentration: 4mM); 1.1 ± 0.12 (concentration: 6mM). The NP40-soluble protein abundance was determined as 1.14 ± 0.15 (concentration: 8mM) and 1.13 ± 0.19 (concentration: 10mM).
UniProt Q9NWK9 and related entries: the NP40-soluble protein abundance came to 1.05 ± 0.065 (concentration: 0.1mM); 1.06 ± 0.02 (concentration: 0.5mM); 1.13 ± 0.085 (concentration: 1mM); 1.13 ± 0.1 (concentration: 2mM); 1.1 ± 0.082 (concentration: 4mM); 1.12 ± 0.091 (concentration: 6mM). For the same target, the NP40-soluble protein abundance reads like this: (concentration: 8mM) 1.18 ± 0.15; (concentration: 10mM) 1.15 ± 0.17.
Turning to UniProt Q9NXE8, the NP40-soluble protein abundance by setting is: (concentration: 0.1mM) 1.05 ± 0.07; (concentration: 0.5mM) 1.05 ± 0.082; (concentration: 1mM) 1.18 ± 0.12; (concentration: 2mM) 1.09 ± 0.19; (concentration: 4mM) 1.2 ± 0.099; (concentration: 6mM) 1.16 ± 0.19. The NP40-soluble protein abundance reads like this: (concentration: 8mM) 1.174 ± 0.0048; (concentration: 10mM) 1.23 ± 0.16.
With UniProt Q9ULI0 and related entries, the NP40-soluble protein abundance (concentration: 0.1mM) stood at 1.06 ± 0.14; the NP40-soluble protein abundance (concentration: 0.5mM) stood at 1.13 ± 0.14; the NP40-soluble protein abundance (concentration: 1mM) was 1.36 ± 0.12; the NP40-soluble protein abundance (concentration: 2mM) was determined as 1.46 ± 0.044; the NP40-soluble protein abundance (concentration: 4mM) came to 1.41 ± 0.073; the NP40-soluble protein abundance (concentration: 6mM) turned out to be 1.44 ± 0.03. The NP40-soluble protein abundance is, setting by setting: (concentration: 8mM) 1.53 ± 0.21; (concentration: 10mM) 1.45 ± 0.21.
In the case of RNF181 (UniProt Q9P0P0), the NP40-soluble protein abundance (concentration: 0.1mM) worked out at 0.961 ± 0.027; the NP40-soluble protein abundance (concentration: 0.5mM) was 0.925 ± 0.028; the NP40-soluble protein abundance (concentration: 1mM) was 1.05 ± 0.077; the NP40-soluble protein abundance (concentration: 2mM) is 1.03 ± 0.045; the NP40-soluble protein abundance (concentration: 4mM) was 1.01 ± 0.013; the NP40-soluble protein abundance (concentration: 6mM) stood at 1.02 ± 0.05. Besides, the NP40-soluble protein abundance runs as follows: (concentration: 8mM) 1.04 ± 0.1; (concentration: 10mM) 1.09 ± 0.075.
